At least one compound was matched to its structure with a doubt left.
Tests used:
Format in all cases: cell-based
[1] = tested on: Pseudomonas aeruginosa; assay: Antimicrobial testing by agar dilution, Pseudomonas aeruginosa; conditions: Ps. aeruginosa
Method: (§1) The antimicrobial properties of the 9-(4-Nitrobenzylidene)-4-(4-nitrophenyl)-3-cyano-2-methoxy-6,7,8,9-tetrahydro-5H-cyclohepta[b]pyridine was studied by the method of agar dilution. Test solutions of each compound was prepared in concentration of 1% using dimethylformamide as a solvent then they are diluted in physiological solution to obtain the final experimental dilutions 1:100, 1:200, 1:400, 1:800. The effect of these substances are compared with furacillin in a controllable study. The testing microbes used were gram positive bacteria Staphylococcus aureus, gram negative bacteria Pseudomonas aeruginosa, Escherichia coli and Candida albicans fungi were taken.
(§2) The experiments used for this survey were meat-pentonlu agar (EPA) for cultivation of bacteria and Saburo environment for fungi. Each experiment used 1 mL of test solution on each plate 500 min. Add 2 drops of emulsified with microbes feel. All experimental samples were taken from the agar after 10, 20, 40, 60 minutes in the environment on the basis of Patrk planted. Bacteria were cultivated at a temperature of 37° C. for 1 day and the mushroom was kept in a thermostat for […] at a temperature of 28° C. Then the results were checked.

[2] = tested on: Staphylococcus aureus; assay: Antimicrobial testing by agar dilution, Staphylococcus aureus; conditions: St. Aereus
Method: as §1, §2

[3] = tested on: Escherichia coli; assay: Antimicrobial testing by agar dilution, Escherichia coli; conditions: E. Coli
Method: as §1, §2

[4] = tested on: Candida albicans; assay: Antimicrobial testing by agar dilution, Candida albicans
Method: as §1, §2

[5] = dilution rate 1:100, exposure time 10 min
[6] = dilution rate 1:100, exposure time 20 min
[7] = dilution rate 1:100, exposure time 40 min
[8] = dilution rate 1:100, exposure time 60 min
[9] = dilution rate 1:200, exposure time 10 min
[10] = dilution rate 1:200, exposure time 20 min
[11] = dilution rate 1:200, exposure time 40 min
[12] = dilution rate 1:200, exposure time 60 min
[13] = dilution rate 1:400, exposure time 10 min
[14] = dilution rate 1:400, exposure time 20 min
[15] = dilution rate 1:400, exposure time 40 min
[16] = dilution rate 1:400, exposure time 60 min
[17] = dilution rate 1:800, exposure time 10 min
[18] = dilution rate 1:800, exposure time 20 min
[19] = dilution rate 1:800, exposure time 40 min
[20] = dilution rate 1:800, exposure time 60 min

For `NC(=O)N/N=C/c1ccc([N+](=O)[O-])o1` [Furacilin], the antimicrobial activity [1, 5] was “+”, the antimicrobial activity [1, 6] was “+” and the antimicrobial activity [1, 7] was “+”. The antimicrobial activity [1, 8] was “+”, the antimicrobial activity [1, 9] was “+” and the antimicrobial activity [1, 10] was “+”. The antimicrobial activity [1, 11] was “+”, the antimicrobial activity [1, 12] was “+” and the antimicrobial activity [1, 13] was “+”. For the same compound, the antimicrobial activity [1, 14] was “+”, the antimicrobial activity [1, 15] was “+” and the antimicrobial activity [1, 16] was “+”. The antimicrobial activity [1, 17] was “+”, the antimicrobial activity [1, 18] was “+” and the antimicrobial activity [1, 19] was “+”. For the same compound, the antimicrobial activity [1, 20] was “+”, the antimicrobial activity [2, 5] was “−” and the antimicrobial activity [2, 6] was “−”. For the same compound, the antimicrobial activity [2, 7] was “−”, the antimicrobial activity [2, 8] was “−” and the antimicrobial activity [2, 9] was “+”. The antimicrobial activity [2, 10] was “+”, the antimicrobial activity [2, 11] was “+” and the antimicrobial activity [2, 12] was “+”. For the same compound, the antimicrobial activity [2, 13] was “+”, the antimicrobial activity [2, 14] was “+” and the antimicrobial activity [2, 15] was “+”. For the same compound, the antimicrobial activity [2, 16] was “+”, the antimicrobial activity [2, 17] was “+” and the antimicrobial activity [2, 18] was “+”. The antimicrobial activity [2, 19] was “+”, the antimicrobial activity [2, 20] was “+” and the antimicrobial activity [3, 5] was “−”. The antimicrobial activity [3, 6] was “−”, the antimicrobial activity [3, 7] was “−” and the antimicrobial activity [3, 8] was “−”. The antimicrobial activity [3, 9] was “+”, the antimicrobial activity [3, 10] was “+” and the antimicrobial activity [3, 11] was “+”. For the same compound, the antimicrobial activity [3, 12] was “+”, the antimicrobial activity [3, 13] was “+” and the antimicrobial activity [3, 14] was “+”. The antimicrobial activity [3, 15] was “+”, the antimicrobial activity [3, 16] was “+” and the antimicrobial activity [3, 17] was “+”. The antimicrobial activity [3, 18] was “+”, the antimicrobial activity [3, 19] was “+” and the antimicrobial activity [3, 20] was “+”. The antimicrobial activity [4, 5] was “−”, the antimicrobial activity [4, 6] was “−” and the antimicrobial activity [4, 7] was “+”. The antimicrobial activity [4, 8] was “+”, the antimicrobial activity [4, 9] was “+” and the antimicrobial activity [4, 10] was “+”. The antimicrobial activity [4, 11] was “+”, the antimicrobial activity [4, 12] was “+” and the antimicrobial activity [4, 13] was “+”. The antimicrobial activity [4, 14] was “+”, the antimicrobial activity [4, 15] was “+” and the antimicrobial activity [4, 16] was “+”. For the same compound, the antimicrobial activity [4, 17] was “+”, the antimicrobial activity [4, 18] was “+” and the antimicrobial activity [4, 19] was “+”. The antimicrobial activity [4, 20] was “+”.
